Measurements taken from patent publication US20040005687A1, “Kinase crystal structures” (priority 2001, published 2004).
Not every detail of the peptide structures is certain; ends, links or a residue may be inferred. Peptide text beside a SMILES is read from it.

Chains of the proteins cited; added tags and fusions are not shown. Residues count along the entry.
UniProt P31751, 146-460, stated change not applied: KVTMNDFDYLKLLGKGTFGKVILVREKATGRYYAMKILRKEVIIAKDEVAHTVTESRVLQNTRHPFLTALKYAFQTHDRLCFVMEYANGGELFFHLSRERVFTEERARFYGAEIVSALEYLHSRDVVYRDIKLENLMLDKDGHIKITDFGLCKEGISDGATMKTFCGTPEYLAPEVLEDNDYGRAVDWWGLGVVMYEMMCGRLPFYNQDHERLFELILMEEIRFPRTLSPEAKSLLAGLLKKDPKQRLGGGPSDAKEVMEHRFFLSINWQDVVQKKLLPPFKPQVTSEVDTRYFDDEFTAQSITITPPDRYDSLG
UniProt P31751, 146-460 L225A: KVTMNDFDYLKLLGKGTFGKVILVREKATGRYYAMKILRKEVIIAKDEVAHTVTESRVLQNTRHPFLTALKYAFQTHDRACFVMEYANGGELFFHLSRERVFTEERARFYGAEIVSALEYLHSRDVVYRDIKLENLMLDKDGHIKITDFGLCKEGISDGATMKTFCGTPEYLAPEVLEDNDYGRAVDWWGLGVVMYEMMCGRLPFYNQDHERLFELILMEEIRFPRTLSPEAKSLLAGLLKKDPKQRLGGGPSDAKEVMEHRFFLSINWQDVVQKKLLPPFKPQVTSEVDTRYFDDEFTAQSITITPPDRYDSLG
UniProt P31751, 146-460 R202D: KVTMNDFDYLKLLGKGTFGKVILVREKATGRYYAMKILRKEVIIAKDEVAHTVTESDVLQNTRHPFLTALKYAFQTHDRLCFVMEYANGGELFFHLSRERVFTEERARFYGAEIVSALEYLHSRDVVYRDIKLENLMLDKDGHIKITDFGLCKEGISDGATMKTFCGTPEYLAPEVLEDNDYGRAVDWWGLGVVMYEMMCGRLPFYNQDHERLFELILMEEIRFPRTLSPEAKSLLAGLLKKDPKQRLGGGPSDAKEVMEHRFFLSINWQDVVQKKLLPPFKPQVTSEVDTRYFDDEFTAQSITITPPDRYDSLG

Experiments:
ΔPH-PKB-ΔC = target: T1, ΔPH-PKB-ΔC (Homo sapiens, UniProt P31751); assay: Isothermal titration calorimetry, binding to ΔPH-PKB-ΔC; settings: ITC
T1 construct: ΔPH-PKB-ΔC(residues 146 to 460, not phosphorylated on Thr-309); 6xHis (pFastBacHTa, TEV-cleavable) (N, cleaved yes); made in house; host or cells: Sf9 insect cells / baculovirus

PDK1 = target: T2, PDK1 (Homo sapiens, UniProt O15530); settings: cited from earlier work
T2 sequence (O15530 1-556): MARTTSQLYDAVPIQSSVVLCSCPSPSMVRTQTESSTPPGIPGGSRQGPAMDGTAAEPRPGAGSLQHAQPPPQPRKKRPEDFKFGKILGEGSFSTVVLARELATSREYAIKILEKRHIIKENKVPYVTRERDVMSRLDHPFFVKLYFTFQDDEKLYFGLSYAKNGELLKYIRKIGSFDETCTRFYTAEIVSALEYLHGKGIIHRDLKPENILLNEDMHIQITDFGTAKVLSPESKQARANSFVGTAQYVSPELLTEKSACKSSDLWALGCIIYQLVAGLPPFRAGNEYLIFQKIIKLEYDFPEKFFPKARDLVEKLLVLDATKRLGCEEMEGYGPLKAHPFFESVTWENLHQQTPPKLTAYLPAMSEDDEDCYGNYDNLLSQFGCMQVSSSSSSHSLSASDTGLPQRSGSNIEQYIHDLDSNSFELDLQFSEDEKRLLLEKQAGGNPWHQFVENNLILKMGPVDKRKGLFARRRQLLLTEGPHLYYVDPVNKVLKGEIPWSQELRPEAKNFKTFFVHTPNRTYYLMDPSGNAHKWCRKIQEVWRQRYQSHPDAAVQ

pΔPH-PKB-ΔC L225A mutant = target: T3, pΔPH-PKB-ΔC L225A mutant (Homo sapiens, UniProt P31751, L225A); assay: PIFtide responsiveness of pΔPH-PKB-ΔC hydrophobic groove mutant Leu 225; type: biochemical
T3 construct: pΔPH-PKB-ΔC (residues 146 to 460, phosphorylated in vitro on Thr-309); His tag; made in house; host or cells: HEK cells (transient expression), purified on Ni-NTA

pΔPH-PKB-ΔC R202D mutant = target: T4, pΔPH-PKB-ΔC R202D mutant (Homo sapiens, UniProt P31751, R202D); assay: PIFtide responsiveness of pΔPH-PKB-ΔC mutant R202D; type: biochemical; settings: 130 pM PIFtide
T4 construct: pΔPH-PKB-ΔC (residues 146 to 460, phosphorylated in vitro on Thr-309); His tag; made in house; host or cells: HEK cells (transient expression), purified on Ni-NTA

[1] = target: T5, pΔPH-PKB-ΔC (PKBβ residues 146 to 460, phosphorylated in vitro on Thr-309) (Homo sapiens, UniProt P31751); assay: Protein kinase B assay, peptide stimulation of pΔPH-PKB-ΔC (Crosstide substrate); type: biochemical
T5 construct: pΔPH-PKB-ΔC (residues 146 to 460, phosphorylated in vitro on Thr-309); 6xHis (pFastBacHTa, TEV-cleavable) (N, cleaved yes); made in house; host or cells: Sf9 insect cells / baculovirus
Experimental: To test the model that Ser 474 phosphorylation promotes an interaction between the hydrophobic motif and the induced hydrophobic groove of the N-terminal lobe, thereby causing an allosteric activation of the kinase, the ability of peptides modelled on the hydrophobic motif of PKB to activate the enzyme via an intermolecular association with the N-terminal lobe was assessed.
PKB was assayed essentially as described by Andjelkovic et al. (1999) with 30 μM Crosstide (GRPRTSSAEG) as substrate except the protein kinase A inhibitor peptide was not added to the reactions. For peptide stimulation experiments the various peptides were dissolved in water and added to the kinase assay mix prior to adding the PKB protein. Peptides were synthesized by Franz Fischer at the FMI or purchased from Neosystem, Strasburg, France.
All experiments were performed in either duplicate or triplicate.

pΔPH-PKB-ΔC = target: T6, pΔPH-PKB-ΔC (Homo sapiens, UniProt P31751); assay: Isothermal titration calorimetry, binding to pΔPH-PKB-ΔC
T6 construct: pΔPH-PKB-ΔC (residues 146 to 460, phosphorylated in vitro on Thr-309); 6xHis (pFastBacHTa, TEV-cleavable) (N, cleaved yes); made in house; host or cells: Sf9 insect cells / baculovirus

| SMILES | enthalpy change (AH) of interaction (ΔPH-PKB-ΔC) | entropy term (TAS) of interaction (ΔPH-PKB-ΔC) | thermal stability of PDK1 (PDK1) | responsiveness of Leu 225 mutant to PIFtide (in words) (pΔPH-PKB-ΔC L225A mutant) | ability to activate R202D PKB mutant (in words) (pΔPH-PKB-ΔC R202D mutant) | concentration of maximum and saturable activation ([1]; FIG. 5B) | specific activity of pΔPH-PKB-ΔC maximally activated by peptide ([1]; maximally activated) | stimulation of pΔPH-PKB-ΔC kinase activity (in words) ([1]; Crosstide substrate, dose response FIG. 5) | fold lower affinity than PIFtide (from EC50 values) ([1]; relative to PIFtide) | fold lower affinity relative to PIFtide (ITC) (pΔPH-PKB-ΔC) |
| --- | --- | --- | --- | --- | --- | --- | --- | --- | --- | --- |
| CC[C@H](C)[C@H](NC(=O)[C@H](Cc1ccc(O)cc1)NC(=O)[C@H](CC(=O)O)NC(=O)[C@H](Cc1ccccc1)NC(=O)[C@H](CC(=O)O)NC(=O)[C@H](CCCNC(=N)N)NC(=O)[C@H](Cc1ccccc1)NC(=O)[C@H](CCSC)NC(=O)[C@H](CCC(=O)O)NC(=O)[C@H](CCC(N)=O)NC(=O)[C@H](CCC(=O)O)NC(=O)[C@H](CCC(=O)O)NC(=O)[C@H](CCC(=O)O)NC(=O)[C@H](CO)NC(=O)[C@H](CC(C)C)NC(=O)[C@@H](NC(=O)[C@H](CCCNC(=N)N)NC(=O)[C@@H]1CCCN1C(=O)[C@H](CCC(=O)O)NC(=O)[C@@H](N)CCCNC(=N)N)[C@@H](C)CC)C(=O)N[C@@H](C)C(=O)N[C@@H](CC(=O)O)C(=O)N[C@@H](Cc1c[nH]c2ccccc12)C(=O)O [PIFtide] (H-REPRILSEEEQEMFRDFDYIADW-OH; N-terminus and C-terminus assumed) | -16.0 kcal/mol | -9.2 kcal/mol | greatly increases | almost a complete loss of responsiveness | almost eliminates the ability | 20 µM | 350 nmol/min/mg |  |  |  |
| CC[C@H](C)[C@H](NC(=O)[C@H](Cc1ccc(O)cc1)NC(=O)[C@H](C)NC(=O)[C@H](Cc1ccccc1)NC(=O)[C@H](CC(=O)O)NC(=O)[C@H](CCCNC(=N)N)NC(=O)[C@H](Cc1ccccc1)NC(=O)[C@H](CCSC)NC(=O)[C@H](CCC(=O)O)NC(=O)[C@H](CCC(N)=O)NC(=O)[C@H](CCC(=O)O)NC(=O)[C@H](CCC(=O)O)NC(=O)[C@H](CCC(=O)O)NC(=O)[C@H](CO)NC(=O)[C@H](CC(C)C)NC(=O)[C@@H](NC(=O)[C@H](CCCNC(=N)N)NC(=O)[C@@H]1CCCN1C(=O)[C@H](CCC(=O)O)NC(=O)[C@@H](N)CCCNC(=N)N)[C@@H](C)CC)C(=O)N[C@@H](C)C(=O)N[C@@H](CC(=O)O)C(=O)N[C@@H](Cc1c[nH]c2ccccc12)C(=O)O [PIFtide(D−>A)] (H-REPRILSEEEQEMFRDFAYIADW-OH; N-terminus and C-terminus assumed) |  |  |  |  |  |  |  | identical to that of the wild type peptide | 10 fold | approximately 25 fold |
